# From US11220671B2, “Methods for the maturation of cardiomyocytes on amniotic fluid cell-derived ECM, cellular constructs, and uses for cardiotoxicity and proarrhythmic screening of drug compounds” (STEMBIOSYS, INC., priority 2019, dated 2022)
# Experiment: Composition of amniotic fluid cell-derived ECM by mass spectrometry (total spectra count)
# Conditions: for Total Spectra Count Matrix A: protein component found by mass spectrometry in amniotic fluid cell-derived ECM Matrix A (Example 1); for Total Spectra Count Matrix B: protein component found by mass spectrometry in amniotic fluid cell-derived ECM Matrix B (Example 1); for Total Spectra Count Matrix C: protein component found by mass spectrometry in amniotic fluid cell-derived ECM Matrix C (Example 1); for Total Spectra Count Matrix D: protein component found by mass spectrometry in amniotic fluid cell-derived ECM Matrix D (Example 1)
Substance,Total Spectra Count Matrix A,Total Spectra Count Matrix B,Total Spectra Count Matrix C,Total Spectra Count Matrix D
Thrombospondin-1,24,103,3,1
Triosephosphate isomerase,15,15,0,11
Vimentin,263,1179,178,338
Voltage-dependent anion-selective channel protein 1,18,50,4,19
eIF-2-alpha kinase activator GCN1,14,0,0,6
